Assay results taken from PMC12592187.
No constants are given. Whether binding was seen depends on the method and setting. In cells and extracts the contact can be indirect. Some binding calls cover weakened binding; strength is not graded here.

Protein sequences, listed by entry. Tags and fused reporters are not part of them. Residues count along the entry.
UniProt Q9QZH6, residues 49-435: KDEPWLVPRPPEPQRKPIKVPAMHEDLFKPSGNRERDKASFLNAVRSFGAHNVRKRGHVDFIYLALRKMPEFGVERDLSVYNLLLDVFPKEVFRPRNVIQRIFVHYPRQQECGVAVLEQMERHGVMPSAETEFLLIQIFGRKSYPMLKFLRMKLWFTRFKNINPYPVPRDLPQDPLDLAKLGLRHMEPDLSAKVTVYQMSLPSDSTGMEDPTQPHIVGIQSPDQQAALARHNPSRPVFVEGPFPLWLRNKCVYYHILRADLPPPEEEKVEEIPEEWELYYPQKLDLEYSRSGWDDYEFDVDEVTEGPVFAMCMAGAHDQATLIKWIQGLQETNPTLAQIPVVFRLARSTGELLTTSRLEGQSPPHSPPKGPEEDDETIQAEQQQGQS

Target: evolutionarily conserved signaling intermediate in Toll pathways (ECSIT), endogenous in RAW264.7 (mouse (endogenous in RAW264.7)) (UniProt Q9QZH6)
Assay: co-IP

B1: TNF receptor-associated factor 6 (TRAF6), endogenous in RAW264.7 (protein, UniProt P70196 1-530)
chain: MSLLNCENSCGSSQSSSDCCAAMAASCSAAVKDDSVSGSASTGNLSSSFMEEIQGYDVEFDPPLESKYECPICLMALREAVQTPCGHRFCKACIIKSIRDAGHKCPVDNEILLENQLFPDNFAKREILSLTVKCPNKGCLQKMELRHLEDHQVHCEFALVNCPQCQRPFQKCQVNTHIIEDCPRRQVSCVNCAVSMAYEEKEIHDQSCPLANIICEYCGTILIREQMPNHYDLDCPTAPIPCTFSVFGCHEKMQRNHLARHLQENTQLHMRLLAQAVHNVNLALRPCDAASPSRGCRPEDPNYEETIKQLESRLVRQDHQIRELTAKMETQSMYVGELKRTIRTLEDKVAEMEAQQCNGIYIWKIGNFGMHLKSQEEERPVVIHSPGFYTGRPGYKLCMRLHLQLPTAQRCANYISLFVHTMQGEYDSHLPWPFQGTIRLTILDQSEALIRQNHEEVMDAKPELLAFQRPTIPRNPKGFGYVTFMHLEALRQGTFIKDDTLLVRCEVSTRFDMGGLRKEGFQPRSTDAGV
binding: binds
